The name of at least one read-out is uncertain.
System: SD female rats
Assay: Effect of test compound on urethral pressure in anesthetized rats
Type: in vivo, rat
Settings: urethane-anesthetized SD female rats
Source text: SD female rats were anesthetized with urethane and subjected to laparotomy. Then, the bladder apex was incised and a catheter was inserted from the bladder apex. Further, the catheter tip was ligated and fixed to be located in the proximal urethra portion. The catheter was connected to a pressure transducer and an infusion pump. Further, a catheter for administrating the compound was fitted into the femoral vein. Physiological saline was continuously infused into the urethra and the perfusion pressure in the urethra was measured. After the urethral pressure was stabilized, the test compound that had been dissolved in physiological saline, or physiological saline including 5% dimethylacetamide and 0.5% Cremophor was administered intravenously at 0.01 mg/kg or 0.1 mg/kg, and a change in urethral pressures was measured.
Further, the results of administering an active metabolite of midodrine (ST-1059: purchased from CHEMIZON) (J. Urology, 118, 980-982 (1977)) which is an α1 adrenoceptor agonist and is confirmed to have a clinical effect on stress urinary incontinence at doses, 0.01 mg/kg and, 0.1 mg/kg in rats, presumed to correspond to the clinical doses are referenced and shown in the Tables below.
The increment value in the urethral pressures of ramelteon and the Example compounds of the present invention at the time of administration are shown in Table 3. […]

## COc1ccc(OC)c(C(O)CN)c1 (centres unmarked) [ST-1059, reference compound]
0.01 mg/kg intravenously
  Increment value in the urethral pressures: 4.9 ± 1.1 mmHg
0.1 mg/kg intravenously
  Increment value in the urethral pressures: 9.6 ± 1.8 mmHg

— patent publication US9637451B2, “Indole compound” (ASTELLAS PHARMA INC., priority 2014, dated 2017)
